PubChem BioAssay AID1224827, NIAID | 2016
Test: 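Confirm genes whose knock-down changes LPS-driven TNF promoter activity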 (follow-up of hits). Cell system: RAW264.7 G9 mouse macrophage reporter clone. Reagents: single siRNA against mouse genes, 100 nM siRNA. Timing: siRNA for 2 days, then LPS about 16 h. Conditions: bacterial lipopolysaccharide (LPS), 10 ng/ml, cells fixed after overnight (about 16 h) stimulation. Detection: 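TNF promoter reporter red fluorescence in nuclei, background subtracted, normalised per plate and to non-targeting control siRNA, as z-scores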. Scale: TNF reporter z-score, mean: higher = stronger Tnf promoter reporter signal. Active means: 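An siRNA is called active when its mean z-score over replicates is at least +2 or at most -2; control wells get no call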.
The whole screen tested about 3,800 reagents; shown is an unselected part. Over the whole deposit, about 2,200 (57%) got an active call. 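Active means a strong reporter change in either direction; calls are per siRNA, not per gene; qiagen siRNAs gave weaker effects.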 Reagents against one gene are numbered here. Not all columns of the deposit are shown.

After knock-down of Nedd4 #1, the screen gave TNF reporter z-score, mean 11.9; active. Knock-down of Nedd4 #2 resulted in: TNF reporter z-score, mean -3; active. For Nedd4 #3, the values are TNF reporter z-score, mean -4.77; active. After knock-down of Nedd4 #4, the record shows TNF reporter z-score, mean 3.99; active. Nedd4 #5 scored TNF reporter z-score, mean 3.01; active. For Nedd4 #6, the entry reads TNF reporter z-score, mean 1.29; inactive.

Depletion of Cct7 #1 gave: TNF reporter z-score, mean -3.63; active. After knock-down of Cct7 #2, the record shows TNF reporter z-score, mean -4.48; active. Silencing of Cct7 #3 resulted in: TNF reporter z-score, mean -4.41; active. Knock-down of Cct7 #4 came out at: TNF reporter z-score, mean 1.98; inactive. Cct7 #5 showed TNF reporter z-score, mean 0.978; inactive. Against Cct7 #6, the values are TNF reporter z-score, mean -0.671; inactive.

Silencing of Hdac5 #1 gave: TNF reporter z-score, mean -2.29; active. For Hdac5 #2 the deposit lists TNF reporter z-score, mean -2.79; active. Hdac5 #3 scored TNF reporter z-score, mean -3.84; active. After knock-down of Hdac5 #4 the results were TNF reporter z-score, mean 3.49; active. After knock-down of Hdac5 #5, the screen gave TNF reporter z-score, mean -1.37; inactive. Hdac5 #6 showed TNF reporter z-score, mean -2.05; active.

After knock-down of Nfkbid #1, the screen gave TNF reporter z-score, mean -0.5; inactive. For Nfkbid #2, the entry reads TNF reporter z-score, mean -3.13; active. After knock-down of Nfkbid #3, the record shows TNF reporter z-score, mean -4.1; active. After knock-down of Nfkbid #4 the results were TNF reporter z-score, mean 1.68; inactive. After knock-down of Nfkbid #5, the screen gave TNF reporter z-score, mean 0.208; inactive. Knock-down of Nfkbid #6 came out at: TNF reporter z-score, mean -0.871; inactive.

Gm15850 #1 gave TNF reporter z-score, mean 4.28; active. Silencing of Gm15850 #2 came out at: TNF reporter z-score, mean -1.49; inactive. Gm15850 #3 gave TNF reporter z-score, mean -4.99; active. With knock-down of Agbl5 #1, the record shows TNF reporter z-score, mean 1.35; inactive. Knock-down of Agbl5 #2 gave: TNF reporter z-score, mean -0.419; inactive. Agbl5 #3 gave TNF reporter z-score, mean -3.46; active.

Depletion of Agbl5 #4 came out at: TNF reporter z-score, mean -0.435; inactive. Against Agbl5 #5 the deposit lists TNF reporter z-score, mean -0.899; inactive. With knock-down of Agbl5 #6, the screen gave TNF reporter z-score, mean -3.99; active.

A portion taken from the entries so far:
Nedd4 #4 — TNF reporter z-score, mean: 3.99; Call: active
Nedd4 #5 — TNF reporter z-score, mean: 3.01; Call: active
Nedd4 #6 — TNF reporter z-score, mean: 1.29; Call: inactive
Cct7 #1 — TNF reporter z-score, mean: -3.63; Call: active
Cct7 #2 — TNF reporter z-score, mean: -4.48; Call: active
